From publication PMC12533200
Results are given in words; binding and its absence hold for the method and conditions named. Binding seen in cells or lysates may run through a third protein. Some results given as binding are weak or reduced against the parent protein; the word gives no strength. For some of these results: Where a sequence is shown, tags or fusion partners need not be part of it.

Chains of the proteins cited; added tags and fusions are not shown. Lines headed by an entry give the natural chain unless they say otherwise; changes in a name come on top.
UniProt A5YKK6: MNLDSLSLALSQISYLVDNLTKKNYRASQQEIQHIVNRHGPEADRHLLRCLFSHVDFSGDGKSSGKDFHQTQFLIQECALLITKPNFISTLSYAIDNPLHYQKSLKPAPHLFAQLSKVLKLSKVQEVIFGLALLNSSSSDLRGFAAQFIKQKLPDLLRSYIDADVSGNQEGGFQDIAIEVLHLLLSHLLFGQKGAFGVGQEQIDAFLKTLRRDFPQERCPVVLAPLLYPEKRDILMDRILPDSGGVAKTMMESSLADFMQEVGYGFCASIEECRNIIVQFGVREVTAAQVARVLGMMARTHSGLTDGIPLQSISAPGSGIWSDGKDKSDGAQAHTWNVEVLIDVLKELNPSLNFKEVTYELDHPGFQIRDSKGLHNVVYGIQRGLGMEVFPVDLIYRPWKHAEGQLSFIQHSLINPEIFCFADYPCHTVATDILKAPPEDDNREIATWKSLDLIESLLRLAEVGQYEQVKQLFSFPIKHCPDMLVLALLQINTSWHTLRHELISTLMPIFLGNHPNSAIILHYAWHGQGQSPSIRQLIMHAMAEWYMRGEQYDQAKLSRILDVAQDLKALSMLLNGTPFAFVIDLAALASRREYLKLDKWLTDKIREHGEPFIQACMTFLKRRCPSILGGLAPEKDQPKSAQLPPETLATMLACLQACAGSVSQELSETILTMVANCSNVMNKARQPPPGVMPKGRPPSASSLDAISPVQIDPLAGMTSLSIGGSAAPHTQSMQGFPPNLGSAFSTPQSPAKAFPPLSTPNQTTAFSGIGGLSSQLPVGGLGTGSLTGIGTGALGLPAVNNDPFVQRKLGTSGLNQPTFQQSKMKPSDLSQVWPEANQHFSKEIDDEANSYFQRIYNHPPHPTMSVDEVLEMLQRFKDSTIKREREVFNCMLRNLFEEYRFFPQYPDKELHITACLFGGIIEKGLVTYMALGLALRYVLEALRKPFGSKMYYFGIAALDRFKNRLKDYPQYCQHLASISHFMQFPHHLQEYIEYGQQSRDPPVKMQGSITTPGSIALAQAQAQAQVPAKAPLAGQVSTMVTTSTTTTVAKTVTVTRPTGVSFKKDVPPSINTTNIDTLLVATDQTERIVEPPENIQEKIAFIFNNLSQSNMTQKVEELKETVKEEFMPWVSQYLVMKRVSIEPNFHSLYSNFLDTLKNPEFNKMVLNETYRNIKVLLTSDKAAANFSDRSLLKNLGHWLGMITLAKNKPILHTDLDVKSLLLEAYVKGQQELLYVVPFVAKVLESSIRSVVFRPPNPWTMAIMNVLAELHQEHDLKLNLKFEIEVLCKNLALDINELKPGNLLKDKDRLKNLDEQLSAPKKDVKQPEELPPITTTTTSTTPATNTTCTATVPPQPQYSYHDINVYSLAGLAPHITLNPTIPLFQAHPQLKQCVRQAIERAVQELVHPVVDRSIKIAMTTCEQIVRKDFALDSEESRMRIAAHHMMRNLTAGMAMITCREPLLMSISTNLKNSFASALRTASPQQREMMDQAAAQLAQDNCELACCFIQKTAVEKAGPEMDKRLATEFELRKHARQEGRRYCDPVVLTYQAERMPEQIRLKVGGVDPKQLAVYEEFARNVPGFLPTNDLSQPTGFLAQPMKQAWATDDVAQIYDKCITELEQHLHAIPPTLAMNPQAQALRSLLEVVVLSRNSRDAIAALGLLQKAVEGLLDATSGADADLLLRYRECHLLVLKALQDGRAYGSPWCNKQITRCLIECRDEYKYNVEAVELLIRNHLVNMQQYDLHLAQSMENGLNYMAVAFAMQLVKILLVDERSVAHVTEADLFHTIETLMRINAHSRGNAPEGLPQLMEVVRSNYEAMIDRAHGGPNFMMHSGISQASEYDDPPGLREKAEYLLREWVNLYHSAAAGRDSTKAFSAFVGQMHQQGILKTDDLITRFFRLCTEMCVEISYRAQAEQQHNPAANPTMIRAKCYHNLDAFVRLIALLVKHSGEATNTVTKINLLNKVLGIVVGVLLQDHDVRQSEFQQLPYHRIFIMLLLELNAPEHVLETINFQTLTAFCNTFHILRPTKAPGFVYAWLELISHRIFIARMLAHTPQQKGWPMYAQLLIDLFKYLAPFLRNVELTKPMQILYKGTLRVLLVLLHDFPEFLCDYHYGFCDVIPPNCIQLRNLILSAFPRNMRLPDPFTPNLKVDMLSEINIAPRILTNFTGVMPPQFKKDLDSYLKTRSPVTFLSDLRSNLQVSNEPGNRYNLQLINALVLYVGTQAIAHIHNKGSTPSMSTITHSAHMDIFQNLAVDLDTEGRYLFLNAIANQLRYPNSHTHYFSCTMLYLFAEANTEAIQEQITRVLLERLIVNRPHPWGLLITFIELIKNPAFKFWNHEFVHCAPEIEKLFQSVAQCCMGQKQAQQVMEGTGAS
UniProt Q00987: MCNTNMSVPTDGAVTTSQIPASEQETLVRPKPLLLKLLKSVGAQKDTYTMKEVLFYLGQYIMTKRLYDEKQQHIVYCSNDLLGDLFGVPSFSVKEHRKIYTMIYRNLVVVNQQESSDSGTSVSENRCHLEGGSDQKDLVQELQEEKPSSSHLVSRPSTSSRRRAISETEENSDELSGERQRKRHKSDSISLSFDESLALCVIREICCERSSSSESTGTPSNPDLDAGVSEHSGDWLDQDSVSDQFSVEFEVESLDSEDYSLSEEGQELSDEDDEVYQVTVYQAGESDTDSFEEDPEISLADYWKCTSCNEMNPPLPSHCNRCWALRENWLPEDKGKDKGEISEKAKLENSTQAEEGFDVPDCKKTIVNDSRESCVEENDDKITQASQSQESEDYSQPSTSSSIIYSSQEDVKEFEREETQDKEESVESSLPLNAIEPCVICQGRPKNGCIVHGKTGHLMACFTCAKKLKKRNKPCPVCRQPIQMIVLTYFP

Experiments:
[1] = molecular target: T1, Lethal(2) giant larvae protein homolog 2 (LLGL2), endogenous (human (endogenous in SW620 and RKO)) (UniProt Q6P1M3); assay: co-IP; endogenous proteins in SW620 or RKO cells; lysed in IP buffer (50 mM Tris-HCl pH 8.0, 150 mM NaCl, 10 mM KCl, 0.5% NP-40, 10% glycerol, 1 mM EDTA, protease inhibitors); anti-LLGL2 or anti-MDM2 versus IgG control, Protein A/G magnetic beads, 4 °C overnight, six washes with PBST, western blot
T1 sequence: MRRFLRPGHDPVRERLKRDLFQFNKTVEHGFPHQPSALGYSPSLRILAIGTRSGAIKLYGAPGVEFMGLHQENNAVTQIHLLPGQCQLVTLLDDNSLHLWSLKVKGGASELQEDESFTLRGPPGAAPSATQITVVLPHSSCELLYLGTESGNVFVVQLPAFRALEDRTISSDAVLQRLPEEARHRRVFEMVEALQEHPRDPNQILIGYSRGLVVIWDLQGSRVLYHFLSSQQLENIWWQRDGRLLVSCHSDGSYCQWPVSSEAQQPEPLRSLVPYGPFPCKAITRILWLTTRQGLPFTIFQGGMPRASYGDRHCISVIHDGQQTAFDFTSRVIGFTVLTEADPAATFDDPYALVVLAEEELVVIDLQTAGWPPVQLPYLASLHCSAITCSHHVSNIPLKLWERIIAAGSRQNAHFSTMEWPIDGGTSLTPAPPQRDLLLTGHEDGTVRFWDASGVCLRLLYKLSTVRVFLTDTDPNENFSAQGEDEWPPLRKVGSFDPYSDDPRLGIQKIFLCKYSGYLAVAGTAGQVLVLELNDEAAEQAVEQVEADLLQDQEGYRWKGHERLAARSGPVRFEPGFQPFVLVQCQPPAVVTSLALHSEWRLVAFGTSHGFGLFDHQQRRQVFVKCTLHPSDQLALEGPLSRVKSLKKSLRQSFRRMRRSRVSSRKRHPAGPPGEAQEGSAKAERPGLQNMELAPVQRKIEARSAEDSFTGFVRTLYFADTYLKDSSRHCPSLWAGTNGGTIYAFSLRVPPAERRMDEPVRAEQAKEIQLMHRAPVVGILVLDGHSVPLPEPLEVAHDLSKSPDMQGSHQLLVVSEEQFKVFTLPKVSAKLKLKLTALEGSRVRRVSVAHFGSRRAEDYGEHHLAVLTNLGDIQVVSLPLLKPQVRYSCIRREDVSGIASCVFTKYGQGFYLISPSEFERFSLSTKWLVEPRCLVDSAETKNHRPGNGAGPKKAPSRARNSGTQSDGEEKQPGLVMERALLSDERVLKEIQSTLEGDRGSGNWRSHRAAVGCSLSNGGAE

Flag‐LLGL2 = molecular target: T2, Flag‐LLGL2 (UniProt Q6P1M3); assay: co-IP; exogenous, tagged proteins in transfected HEK293T or SW620 cells; anti-Flag or anti-Myc, Protein A/G magnetic beads, 4 °C overnight, six washes with PBST, western blot
T2 sequence: T1 sequence

binding (Flag‐LLGL2)	Substance	binding [1]
	CCR4‐NOT transcription complex subunit 1 (CNOT1), endogenous (from UniProt A5YKK6 1-2376)	binds
	MDM2, endogenous (from UniProt Q00987 1-491)	binds
binds	Myc‐C464A (enzymatic activity mutant C464A of MDM2) (from UniProt Q00987 1-491)	
binds	Myc‐MDM2 (from UniProt Q00987 1-491)	
